Source: patent US20240238237A1, “CONJUGATED LINOLEIC ACID SUPPLEMENTATION FOR DISEASE TREATMENT” (VIRGINIA TECH INTELLECTUAL PROPERTIES, INC., priority 2021, published 2024)
At least one read-out could not be matched to a standard name with certainty.

System: WT, PWS (Snord116m+/p−) and PWS-KO (Snord116m−/p−) mice
Assay: Fasting glucose and glucose tolerance test
Assay type: in vivo, mouse
Settings: after 12 weeks diet, single or cross-effects
Method: Mice were food-deprived for 12-15 h during the dark cycle in a cage devoid of bedding material. For the fasting measurement, the tail was snipped (1-2 mm), and blood was collected directly on Care Touch glucose test strips and directly measured using a Care Touch blood glucose monitor (Future Diagnostics USA, Brooklyn, NY, USA). Glucose (pharmaceutical grade dextrose, 2 g/kg in PBS, sterile) was injected intraperitoneally (IP) and tail blood samples were obtained at 15, 30, 60, 90, and 120 min following the injection. Area under the curve was calculated using the formula (((([fasting glucose×7.5]+[15 min glucose×15)+[30 min glucose×22.5])+[60 min glucose×30])+[90 min glucose×30])+[120 min glucose×15]).

conjugated linoleic acid [CLA]
Glucose tolerance AUC: not significant
